Literature values in US20150147356A1, “ANTIPYRETICS TO ENHANCE TOLERABILITY OF VESICLE-BASED VACCINES” (priority 2011, published 2015).
At least one compound was matched to its structure with a doubt left.

Conditions: vaccinees received paracetamol, reference 2

In the case of `CC(=O)Nc1ccc(O)cc1` [paracetamol, paracetamol (acetaminophen)], the febrile reactions is given as “significantly decreased”.
